PubChem BioAssay AID330 (DTP/NCI, 2004)
The list is a part of this screen's results and no random one: it is rich in T/C values a quarter to a half above the control, in often repeated tests (any T/C) and in doses without a T/C. Further doses and runs are listed elsewhere. T/C is the treated group as % of the vehicle group. Some entries give survivors of the animals treated and no T/C: the source files T/C as zero there, which appears to mark a toxic dose or a test without result, not a measured value. Some survivor counts are full or nearly so, which does not show that the dose was tolerated: the source hardly ever lists a survival T/C far under the control, and the zero likely stands for such cases as well. Survivors were counted at the toxicity check, usually on the fifth day, unless a day is given; later deaths do not show. Schedule codes are those of the source, read here as Q, the interval in days (D) or hours (H), X, the number of doses. Some entries were tested several times; the values are given in rising order. Marks such as (2×) give the number of equal values in this list. For survival time, this PubChem deposit counts one and a half times the control or more as active, and values a quarter to a half above the control carry no call in these data; other NCI protocols may use other cut-offs. Some T/C values are followed by the survivors on the day toxicity was checked, most often the fifth; where none is given, no animal had died by that day.

Tested on: P388 leukemia ip, CD2F1 mice, survival T/C
Assay: NCI In Vivo Anticancer Drug Screen. Data for tumor model P388 Leukemia (intraperitoneal) in CD2F1 (CDF1) mice
Settings: T/C endpoint: median survival time, higher T/C = longer survival
[1] = dose: 50.0 mg/kg/injection, schedule: Q01DX005 (ip), vehicle: saline with Tween-80
[2] = dose: 60.0 mg/kg/injection, schedule: Q01DX005 (ip), vehicle: saline with Tween-80
[3] = dose: 120.0 mg/kg/injection, schedule: Q01DX005 (ip), vehicle: saline with Tween-80
[4] = dose: 240.0 mg/kg/injection, schedule: Q01DX005 (ip), vehicle: saline with Tween-80
[5] = dose: 200.0 mg/kg/injection, schedule: Q01DX005 (ip), vehicle: saline
[6] = dose: 50.0 mg/kg/injection, schedule: Q01DX009 (ip), vehicle: saline with Tween-80
[7] = dose: 100.0 mg/kg/injection, schedule: Q01DX009 (ip), vehicle: saline with Tween-80
[8] = dose: 200.0 mg/kg/injection, schedule: Q01DX009 (ip), vehicle: saline with Tween-80
[9] = dose: 50.0 mg/kg/injection, schedule: Q01DX005 (ip), vehicle: saline
[10] = dose: 100.0 mg/kg/injection, schedule: Q01DX005 (ip), vehicle: saline
[11] = dose: 0.15 mg/kg/injection, schedule: Q01DX009 (ip), vehicle: water
[12] = dose: 0.3 mg/kg/injection, schedule: Q01DX009 (ip), vehicle: water
[13] = dose: 1.2 mg/kg/injection, schedule: Q01DX009 (ip), vehicle: water

C/C(=N\NC(=O)CCCl)c1ccc([N+](=O)[O-])cc1 was tested, and the survivor count (dose: 42.0 mg/kg/injection, schedule: Q01DX009 (ip), vehicle: saline with Tween-80) was 6 of 6, the survivor count (dose: 84.0 mg/kg/injection, schedule: Q01DX009 (ip), vehicle: saline with Tween-80) was 6 of 6 and the survivor count (dose: 168.0 mg/kg/injection, schedule: Q01DX009 (ip), vehicle: saline with Tween-80) was 5 of 6.

C(=C\c1ccnc2c1ccc1ccccc12)/c1ccccc1 was tested, and the survivor count [1] was 5 of 5.

In the case of Cc1cc2cc3c4c(nnc(NN)c4c2o1)-c1ccccc1CC3, the survivor count [2] is reported as 3 of 6, the survivor count [3] is reported as 3 of 6 and the survivor count [4] is reported as 0 of 6.

For CN(Cc1cnc2nc(N)nc(N)c2c1)c1ccc(C(=O)NC(CCC(=O)O)C(=O)O)cc1 (centres undefined), the T/C (dose: 0.5 mg/kg/injection, schedule: Q01DX005 (ip), vehicle: other) was 137 % of control, the T/C (dose: 1.0 mg/kg/injection, schedule: Q01DX005 (ip), vehicle: other) was 136 % of control and the survivor count (dose: 8.0 mg/kg/injection, schedule: Q01DX005 (ip), vehicle: other) was 5 of 5 and 7 of 7.

CCOC(=O)C(c1ccccc1)N(CCCN(CC)CC)c1ccccc1 (centres undefined) was tested, and the survivor count (dose: 100.0 mg/kg/injection, schedule: Q01DX005 (ip), vehicle: saline with Tween-80) was 0 of 5 and the survivor count (dose: 200.0 mg/kg/injection, schedule: Q01DX005 (ip), vehicle: saline with Tween-80) was 0 of 5.

For CCN(CC)Cc1ccccc1CO, the survivor count [5] was 0 of 6.

In the case of COc1ccc2c(c1)CCC1C2=CC(=O)/C1=C\[O-].COc1ccc2c(c1)CCC1C2=CC(=O)/C1=C\[O-].[Cu+2] (centres undefined), the survivor count (dose: 100.0 mg/kg/injection, schedule: Q04DX003 (ip), vehicle: saline with Tween-80) is reported as 0 of 6 and the survivor count (dose: 200.0 mg/kg/injection, schedule: Q04DX003 (ip), vehicle: saline with Tween-80) is reported as 4 of 6.

In the case of COc1cc2ccc3c[n+]4ccccc4cc3c2cc1OC, the T/C (dose: 25.0 mg/kg/injection, schedule: Q01DX009 (ip), vehicle: Klucel (hydroxypropylcellulose) (HPC)) is reported as 130 % of control.

For CC(=O)CC(=O)c1ccccc1.CC(=O)CC(=O)c1ccccc1.[Ni], the survivor count (dose: 25.0 mg/kg/injection, schedule: Q01DX009 (ip), vehicle: saline with Tween-80) was 6 of 6, the survivor count [6] was 3 of 6 and 5 of 6 and the survivor count [7] was 2 of 6. For the same molecule, the survivor count [8] was 0 of 6.

For COc1ccc2nc3cc(Cl)ccc3c(NCCCNCCCCNCCCNc3c4ccc(Cl)cc4nc4ccc(OC)nc34)c2n1, the survivor count (dose: 3.75 mg/kg/injection, schedule: Q01DX005 (ip), vehicle: saline with Tween-80) was 5 of 6, the survivor count (dose: 7.5 mg/kg/injection, schedule: Q01DX005 (ip), vehicle: saline with Tween-80) was 1 of 6 and the survivor count (dose: 15.0 mg/kg/injection, schedule: Q01DX005 (ip), vehicle: saline with Tween-80) was 0 of 6. The survivor count [2] was 1 of 6, the survivor count [3] was 0 of 6 and the survivor count [4] was 0 of 6.

Cc1cc(NC(=O)c2ccc(N=Nc3cc(S(=O)(=O)O)c4ccccc4c3O)cc2)ccc1N=Nc1ccc2cc(S(=O)(=O)O)cc(S(=O)(=O)O)c2c1 was tested, and the T/C [1] was 125 % of control.

With CC(=O)O.CC(=O)O.[NH-]C(CCC(N)=O)C(=O)O.[NH-]C(CCC(N)=O)C(=O)O.[Ni+2] (centres undefined) the survivor count [6] was 5 of 6, the survivor count [7] was 0 of 6 and the survivor count [8] was 0 of 6.

CC(C)CC(C(=O)O)N(CC(=O)O)CC(=O)O (centres undefined) was tested, and the survivor count [9] was 4 of 5, the survivor count [10] was 5 of 5 and the survivor count [5] was 5 of 5.

O=C1c2ccccc2C(=O)C(Cl)C1Cl (centres undefined) was tested, and the survivor count (dose: 6.25 mg/kg/injection, schedule: Q01DX009 (ip), vehicle: saline with Tween-80) was 3 of 6 and the survivor count (dose: 12.5 mg/kg/injection, schedule: Q01DX009 (ip), vehicle: saline with Tween-80) was 0 of 6.

O=C1C=C2OCOC2=CC1=O was tested, and the survivor count (dose: 35.0 mg/kg/injection, schedule: Q01DX005 (ip), vehicle: Klucel (hydroxypropylcellulose) (HPC)) was 3 of 6 and the survivor count (dose: 70.0 mg/kg/injection, schedule: Q01DX005 (ip), vehicle: Klucel (hydroxypropylcellulose) (HPC)) was 0 of 6.

In the case of CCOP(=O)(OCC)C(N)Cc1c[nH]c2ccccc12 (centres undefined), the survivor count [5] is reported as 0 of 6.

For COC1=C(N)C(=O)c2nc(-c3ccccc3N)ccc2C1=O, the T/C (dose: 200.0 mg/kg/injection, schedule: Q01DX009 (ip), vehicle: saline) was 128 % of control.

For CCC(=O)NC(Cc1cccs1)C(=O)O (centres undefined), the survivor count (dose: 50.0 mg/kg/injection, schedule: Q01DX009 (ip), vehicle: saline) was 6 of 6.

With CN=NN(C)C(=O)NC the T/C [9] was 137 and 144 % of control, the survivor count [10] was 6 of 6 and the survivor count [5] was 3 of 6.

With C/C(=N/N=C(N)N)c1cnc(N/N=C(\C)c2cnc(NN)nc2C)nc1C the survivor count (dose: 60.0 mg/kg/injection, schedule: Q01DX005 (ip), vehicle: saline) was 3 of 6, the survivor count (dose: 120.0 mg/kg/injection, schedule: Q01DX005 (ip), vehicle: saline) was 0 of 6 and the survivor count (dose: 240.0 mg/kg/injection, schedule: Q01DX005 (ip), vehicle: saline) was 0 of 6.

In the case of CSCS(=O)C[C@H](CO)NC(=O)/C=C/c1c(C)[nH]c(=O)[nH]c1=O (some centres undefined), the T/C (dose: 0.07 mg/kg/injection, schedule: Q01DX009 (ip), vehicle: water) is reported as 139 % of control, the T/C (dose: 0.08 mg/kg/injection, schedule: Q01DX009 (ip), vehicle: water, evaluated on day 20) is reported as 149 % of control and the T/C (dose: 0.08 mg/kg/injection, schedule: Q01DX009 (ip), vehicle: water, evaluated on day 30) is reported as 102, 108, 113, 118 (2×), 122 (2×), 126, 128 (2×), 129, 130, 132, 133, 141, 153 % of control. The T/C (dose: 0.1 mg/kg/injection, schedule: Q01DX009 (ip), vehicle: water) was 140 % of control, the T/C (dose: 0.15 mg/kg/injection, schedule: Q01DX009 (ip), vehicle: other) was 137 % of control and the T/C [11] was 117, 118, 118 [5 of 6 alive], 122, 124 (2×), 128, 129 (2×), 131 [5 of 6 alive], 132 [5 of 6 alive], 135, 137 (3×), 143 (2×), 145, 147, 148, 150, 166 % of control. For the same molecule, the survivor count [11] was 4 of 6, the T/C (dose: 0.3 mg/kg/injection, schedule: Q01DX009 (ip), vehicle: other) was 144 % of control and the T/C [12] was 100, 111, 112, 121, 131, 132, 136 [5 of 6 alive], 145, 146, 149, 149 [5 of 6 alive] (2×), 150, 155 (2×), 156 [5 of 6 alive], 157 [5 of 6 alive], 159, 161, 164 % of control. The survivor count [12] was 1 of 6, 5 of 6 (2×), 6 of 6, the survivor count (dose: 0.6 mg/kg/injection, schedule: Q01DX009 (ip), vehicle: other) was 3 of 6 and the T/C (dose: 0.6 mg/kg/injection, schedule: Q01DX009 (ip), vehicle: water, evaluated on day 25) was 100 % of control [5 of 6 alive]. For the same molecule, the T/C (dose: 0.6 mg/kg/injection, schedule: Q01DX009 (ip), vehicle: water, evaluated on day 30) was 88, 92, 102, 137 [4 of 6 alive], 150 [4 of 6 alive], 154, 157 [5 of 6 alive], 165 % of control, the survivor count (dose: 0.6 mg/kg/injection, schedule: Q01DX009 (ip), vehicle: water) was 0 of 6, 1 of 6 (2×), 2 of 6, 3 of 6, 4 of 6 (2×), 5 of 6, 6 of 6 (2×) and the survivor count (dose: 0.7 mg/kg/injection, schedule: Q01DX009 (ip), vehicle: water) was 5 of 6. For the same molecule, the survivor count (dose: 0.8 mg/kg/injection, schedule: Q01DX009 (ip), vehicle: water) was 6 of 6, the survivor count (dose: 0.9 mg/kg/injection, schedule: Q01DX009 (ip), vehicle: water) was 2 of 6 and the survivor count (dose: 1.0 mg/kg/injection, schedule: Q01DX009 (ip), vehicle: water) was 5 of 6. The survivor count (dose: 1.2 mg/kg/injection, schedule: Q01DX009 (ip), vehicle: other) was 0 of 6, the T/C [13] was 100 and 103 % of control and the survivor count [13] was 0 of 6 (2×), 1 of 6 (2×), 2 of 6, 3 of 6, 4 of 6 (2×), 5 of 6 (2×), 6 of 6.

In the case of Cc1ccc(NS(=O)(=O)c2ccc([N+](=O)[O-])cc2)cc1, the survivor count [8] is reported as 6 of 6.

For CC(=O)Oc1cc(C)c(OC(C)=O)c(OC(C)=O)c1C, the survivor count (dose: 400.0 mg/kg/injection, schedule: Q04DX002 (ip), vehicle: Klucel (hydroxypropylcellulose) (HPC)) was 1 of 6.
